Laboratory results as given in paper PMC5431889, “Stapled BIG3 helical peptide ERAP potentiates anti-tumour activity for breast cancer therapeutics” (Scientific Reports, 2017).
Results are given in words; binding and its absence hold for the method and conditions named. In cells and extracts the contact can be indirect. Some entries that bind do so weakly or less than the wild type.

Amino acid sequences for entries named in this document (tags omitted).
UniProt Q99623: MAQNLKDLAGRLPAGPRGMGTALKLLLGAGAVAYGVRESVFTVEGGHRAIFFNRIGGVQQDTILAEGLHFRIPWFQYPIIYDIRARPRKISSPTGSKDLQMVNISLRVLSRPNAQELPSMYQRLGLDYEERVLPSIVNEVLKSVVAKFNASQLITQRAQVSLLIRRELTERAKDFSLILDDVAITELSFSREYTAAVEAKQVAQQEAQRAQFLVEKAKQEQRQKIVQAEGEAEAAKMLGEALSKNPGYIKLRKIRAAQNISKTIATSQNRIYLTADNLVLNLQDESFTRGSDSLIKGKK

Biological target: prohibitin 2 (human (endogenous in MCF-7 and KPL-3C)) (UniProt Q99623)
Assay: co-IP; same co-IP as a2, read as displacement: synthetic peptide added to MCF-7 cells, loss of PHB2 from anti-BIG3 immunoprecipitates; only the binder purified

binding: binds
B1: ERα activity-regulator synthetic peptide (native ERAP; 11R-GGG-QMLSDLTLQLRQR) (peptide)
peptide: RRRRRRRRRRRGGGQMLSDLTLQLRQR
notes: membrane-permeable polyarginine (11R) and GGG linker, printed as 11R-GGG; also called unstapled original ERAP; dominant-negative peptide; source: synthetic peptide
